Data taken from ChEMBL document CHEMBL3988442, “University of Dundee, Small-Polar-MMV Screening Library” (2021).

Amino acid sequences for entries named in this document (tags omitted). Residues count along the entry.
UniProt P9WNZ1, whole entry: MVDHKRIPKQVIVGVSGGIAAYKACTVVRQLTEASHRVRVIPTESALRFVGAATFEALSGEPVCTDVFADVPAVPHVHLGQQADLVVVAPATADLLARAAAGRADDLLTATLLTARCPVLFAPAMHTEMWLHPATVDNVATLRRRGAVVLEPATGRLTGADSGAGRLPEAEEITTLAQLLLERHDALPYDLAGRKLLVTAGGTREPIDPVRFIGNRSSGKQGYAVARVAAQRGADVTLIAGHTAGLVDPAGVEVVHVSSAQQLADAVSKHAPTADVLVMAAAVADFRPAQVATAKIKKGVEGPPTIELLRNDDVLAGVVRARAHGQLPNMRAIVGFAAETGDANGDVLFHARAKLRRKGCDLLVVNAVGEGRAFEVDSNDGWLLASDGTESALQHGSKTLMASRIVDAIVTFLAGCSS
UniProt I6X8D2, whole entry: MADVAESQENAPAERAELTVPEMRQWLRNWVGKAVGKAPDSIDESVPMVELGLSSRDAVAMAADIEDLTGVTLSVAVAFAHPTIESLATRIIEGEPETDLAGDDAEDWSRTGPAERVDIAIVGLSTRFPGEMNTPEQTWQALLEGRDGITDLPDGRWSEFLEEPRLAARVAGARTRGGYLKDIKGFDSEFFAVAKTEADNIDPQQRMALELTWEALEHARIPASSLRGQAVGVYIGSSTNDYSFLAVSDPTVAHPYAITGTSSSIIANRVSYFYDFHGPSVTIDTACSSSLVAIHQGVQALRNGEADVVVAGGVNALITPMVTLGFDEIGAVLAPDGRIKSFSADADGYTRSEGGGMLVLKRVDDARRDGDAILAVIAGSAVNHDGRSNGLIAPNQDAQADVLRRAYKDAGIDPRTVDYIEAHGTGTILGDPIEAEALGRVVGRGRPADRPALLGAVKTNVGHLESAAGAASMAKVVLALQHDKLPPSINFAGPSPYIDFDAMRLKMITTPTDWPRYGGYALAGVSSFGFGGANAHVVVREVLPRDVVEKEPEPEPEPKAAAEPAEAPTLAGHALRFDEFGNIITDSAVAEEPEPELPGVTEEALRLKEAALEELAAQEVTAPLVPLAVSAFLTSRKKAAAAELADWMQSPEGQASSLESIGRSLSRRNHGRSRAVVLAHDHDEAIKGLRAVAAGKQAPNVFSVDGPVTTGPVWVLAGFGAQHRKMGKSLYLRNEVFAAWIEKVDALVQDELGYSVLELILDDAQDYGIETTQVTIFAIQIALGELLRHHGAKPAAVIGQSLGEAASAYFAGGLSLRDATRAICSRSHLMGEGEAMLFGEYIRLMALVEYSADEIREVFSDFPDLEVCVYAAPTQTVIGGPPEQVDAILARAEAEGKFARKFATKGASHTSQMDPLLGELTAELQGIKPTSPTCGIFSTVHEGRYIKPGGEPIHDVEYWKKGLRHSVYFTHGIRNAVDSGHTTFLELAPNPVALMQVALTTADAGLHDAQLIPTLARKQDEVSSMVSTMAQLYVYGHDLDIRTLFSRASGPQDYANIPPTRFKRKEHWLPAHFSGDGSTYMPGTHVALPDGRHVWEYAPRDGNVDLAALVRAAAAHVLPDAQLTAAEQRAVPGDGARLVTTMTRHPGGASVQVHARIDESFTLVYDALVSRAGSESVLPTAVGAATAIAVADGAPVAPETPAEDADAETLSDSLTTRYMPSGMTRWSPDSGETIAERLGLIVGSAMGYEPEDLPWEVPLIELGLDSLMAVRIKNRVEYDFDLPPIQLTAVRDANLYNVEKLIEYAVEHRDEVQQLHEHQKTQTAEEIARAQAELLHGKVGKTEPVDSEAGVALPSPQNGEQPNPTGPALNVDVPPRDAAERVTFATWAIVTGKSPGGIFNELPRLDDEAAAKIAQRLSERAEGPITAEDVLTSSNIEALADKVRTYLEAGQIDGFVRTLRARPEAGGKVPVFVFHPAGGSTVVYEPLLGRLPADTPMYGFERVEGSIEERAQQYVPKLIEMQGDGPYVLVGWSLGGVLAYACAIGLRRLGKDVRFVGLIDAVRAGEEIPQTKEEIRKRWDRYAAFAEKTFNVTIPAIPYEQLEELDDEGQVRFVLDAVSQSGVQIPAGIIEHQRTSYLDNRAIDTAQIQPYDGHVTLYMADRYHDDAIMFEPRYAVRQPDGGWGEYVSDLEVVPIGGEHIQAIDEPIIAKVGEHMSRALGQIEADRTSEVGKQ
UniProt P9WPC5, whole entry: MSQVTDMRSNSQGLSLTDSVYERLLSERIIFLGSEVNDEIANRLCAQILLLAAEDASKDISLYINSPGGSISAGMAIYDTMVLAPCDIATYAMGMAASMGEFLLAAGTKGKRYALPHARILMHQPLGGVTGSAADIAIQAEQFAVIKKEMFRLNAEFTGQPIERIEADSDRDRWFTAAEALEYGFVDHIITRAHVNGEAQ
UniProt P9WPC3, whole entry partner: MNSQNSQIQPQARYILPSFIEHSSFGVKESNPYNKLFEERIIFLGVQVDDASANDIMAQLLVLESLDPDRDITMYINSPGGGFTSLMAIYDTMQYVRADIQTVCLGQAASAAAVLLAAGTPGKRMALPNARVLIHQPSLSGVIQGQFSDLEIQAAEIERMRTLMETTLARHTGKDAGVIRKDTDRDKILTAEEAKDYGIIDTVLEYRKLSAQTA
UniProt Q4DA54, 1-478: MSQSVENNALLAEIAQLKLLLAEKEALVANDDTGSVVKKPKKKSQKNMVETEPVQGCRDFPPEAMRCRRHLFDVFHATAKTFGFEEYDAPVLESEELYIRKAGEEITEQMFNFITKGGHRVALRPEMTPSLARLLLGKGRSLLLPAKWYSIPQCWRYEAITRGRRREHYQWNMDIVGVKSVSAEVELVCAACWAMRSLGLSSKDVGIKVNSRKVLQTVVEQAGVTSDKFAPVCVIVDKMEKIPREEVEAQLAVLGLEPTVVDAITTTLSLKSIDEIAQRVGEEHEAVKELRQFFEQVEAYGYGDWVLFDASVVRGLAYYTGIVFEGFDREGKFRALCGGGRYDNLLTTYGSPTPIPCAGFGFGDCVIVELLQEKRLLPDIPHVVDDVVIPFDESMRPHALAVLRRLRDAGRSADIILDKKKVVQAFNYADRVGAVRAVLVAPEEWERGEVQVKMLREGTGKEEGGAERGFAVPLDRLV

A: 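Coenzyme A biosynthesis protein CoaBC, Mycobacterium tuberculosis (UniProt P9WNZ1). Enzyme assay of CoaBC with a phosphate dye (Biomol Green) read at 650 nm. Concentration: 30 µM. Higher reads as stronger inhibition, judged from the few compounds that gave an IC50. Most strong results did not repeat in a second test. Of about 67,000 compounds tested this way, about 40 (0.06%) reached 50% or more in at least one test.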
B: 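Cell assay of Leishmania donovani living inside macrophages; the read-out is not stated. Concentration: 30 µM. Higher reads as stronger inhibition (inferred: compounds with an IC50 in retests scored well above the rest). About 69,000 compounds were tested under these conditions; 1.5% (about 1,000) showed 50% or more at least once.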
C: 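Polyketide synthase Pks13, Mycobacterium tuberculosis (UniProt I6X8D2). Enzyme assay of the thioesterase domain of polyketide synthase 13; the read-out is not stated. Tested at 30 µM. The record gives no direction; the compounds picked for IC50 retests had high values, so higher reads as stronger inhibition. About 67,000 compounds were tested under these conditions; 0.46% (about 300) showed 50% or more at least once.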
D: 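Protease assay of ClpP1P2, read by the AMC dye that it sets free. Target: ClpP1P2, Mycobacterium tuberculosis (UniProt P9WPC5 and UniProt P9WPC3). Compounds at 50 µM. Direction is inferred from only a few compounds that gave an IC50; most scored high, so higher reads as stronger inhibition. Most other retested compounds had strongly negative values. About 69,000 compounds were tested under these conditions; 0.015% (about 10) showed 50% or more at least once.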
E: 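Enzyme assay of histidyl-tRNA synthetase; the read-out is not stated. Target: Histidine-tRNA ligase, Trypanosoma cruzi CL Brener (UniProt Q4DA54). Tested at 30 µM. Direction is inferred from retests: higher values go with stronger inhibition. About 69,000 compounds were tested under these conditions; 0.045% (about 31) showed 50% or more at least once.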

Values are the deposited “Percent Effect”, in %.
The controls that fix the scale are not given in the record; negative values are as filed.
Compounds were drawn at random from those tested, without regard to their results.
Two or more numbers in one place are separate tests of the same structure; such repeats can differ widely.
A dash means the value is not listed here; it may have been measured.

compound,A,B,C,D,E
CCS(=O)(=O)N1CCc2nnc(CN(C)C(C)C)n2CC1,-1.903%,-3.936% & -17.91%,3.446%,3.433%,6.452%
O=C(c1cc(-n2cccn2)ccc1Cl)N1CCC(N2CCCC2=O)CC1,-1.728%,11.25%,-21.2%,-12.1%,5.473%
Cc1ccc(CN2Cc3ccccc3O[C@]3(CC[C@H](CO)CC3)C2)o1.Cl,-,-9.475% & -14.43%,-,-,-
COc1ccccc1C(=O)N1CC(=O)N(CC2CC2)CC(O)C1 (stereo not drawn),0.7264%,4.852%,10.65%,2.586%,7.865%
CCc1c(NCc2cccnc2)cnn1CC(C)C,3.205%,25.55%,-11.39%,-16.87%,4.926%
CCNC(=O)[C@@H]1C[C@@H](NC(=O)CSC)CN1Cc1ccncc1,3.321%,18.89%,-12.35%,-19.04%,1.212%
Cc1cc(C(=O)N2C[C@H]3CCC[C@@]3(CO)C2)c2ccc(F)cc2n1,0.4878%,-,4.752%,-29.62%,1.961%
O=C(C1CCC1)N1CCC(c2ncc3c(n2)CCNC3)CC1,2.354%,21.2%,-8.581%,0.6739%,18.73%
Cc1nc(C(C)(C)NCc2ncc(C(C)C)o2)sc1C,4.785%,7.552%,-17.97%,-6.191%,-0.9804%
Cc1cc(OCC(=O)N2CCCC(c3ccn[nH]3)C2)no1 (stereo not drawn),8.475%,-23.61%,-13.38%,3.447%,1.132%
COc1ccc(CC2CN(C(=O)c3coc(C)n3)CCO2)cc1 (stereo not drawn),1.425%,5.476%,0.6286%,1.016%,3.846%
CSc1ccc(C(C)NC(=O)c2cc(C)on2)cc1 (stereo not drawn),-0.8526%,-4.253%,-4.917%,-4.511%,8.929%
CN1CCCC(Cc2nccnc2Cl)CC1 (stereo not drawn),-2.67%,18.32%,14.3%,-23.69%,18.77%
c1ccc(OCCN2CCC(c3nnc(-c4cccnc4)o3)CC2)cc1,5.392%,2.282%,18.92%,-3.87%,11.7%
Cc1ccc(C(=O)N2CCN(CCc3ccccc3)CC2)c(=O)[nH]1,3.947%,20.88%,-8.712%,-33.88%,6.158%
CCCc1cc(C(=O)N[C@@H]2CC[C@@H](N3CCOCC3)[C@@H]2O)no1,-3.558%,-35.91%,0.05206%,-14.46%,5.426%
OC1CCN(Cc2cc3c(cc2Br)OCCO3)CC1,0.4219%,-6.53%,-10.01%,-9.37%,4.065%
c1nc2n(c1CN1CCOCC1)CCN(C1CCOC1)CC2 (stereo not drawn),-1.525%,-1.659%,-9.555%,4.599%,4.372%
CN1CCN(C(=O)c2cc3sccc3n2Cc2ccc(Cl)cc2)CC1,-11.08%,14.21%,15.89%,-27.8%,1.031%
CCNC(=O)[C@@H]1C[C@@H](NC(=O)Cc2cc(C)no2)CN1Cc1ccsc1,1.788%,-7.409%,-22.55%,-10.04%,-4.848%
Cc1nnc2n1CCN(C(=O)COCCOc1ccccc1)C2,4.7%,16.55%,-5.84%,4.38%,1.128%
N#Cc1ccc(F)c(CN2CCCC2Cn2cnc3ccccc32)c1 (stereo not drawn),3.035%,1.065%,-10.17%,-2.382%,-1.149%
Cc1ccc2c(c1)N(C(=O)c1c[nH]c(C)cc1=O)CC(C)O2 (stereo not drawn),-0.6734%,10.33%,-,-8.798%,-1.01%
CNC(=O)C(C)(C)N1CCC[C@H]1C(=O)NCC1CC1,15.12%,-8.777%,15.68%,-1.497%,0%
Cc1cnn(CCNCC(=O)N2CCN(c3ccccc3)CC2)c1,12.13%,9.568%,-13.36%,-1.777%,1.587%
Cc1cccc(CN2CC3(CCN(C(N)=O)CC3)OCC2=O)n1,21.23% & -3.608%,5.842%,-,-0.7464%,-0.9346%
Cc1cc2[nH]c(CN3CCOC(c4ccc(Cl)cc4)C3)cc(=O)n2n1 (stereo not drawn),1.471%,-1.36%,-47.86%,-4.972%,2.381%
CCOC(=O)N1CCN(C(=O)Cc2c(C)nc(C)[nH]c2=O)CC1,-3.797%,19.79%,-21.78%,0.8858%,9.36%
Cc1nc(CN2CCOC(Cn3cccn3)C2)no1 (stereo not drawn),-3.182%,-33.72%,-0.9992%,-22.79%,4.611%
CC(C(=O)N1CCCC1)N1CCC(c2nccn2Cc2cscn2)CC1 (stereo not drawn),0.8772%,6.937%,-5.717%,-5.31%,4.132%
CCOC(=O)NCC(=O)Nc1nc2ccccc2n1C(C)(C)C,-2.39%,-4.703%,-7.514%,-2.962%,3.158%
CCC1CN(Cc2c(O)ccc3oc4c(c23)CCCC4)CCO1 (stereo not drawn),0.2439%,-12.63%,14.26%,13.68%,6.494%